Measured values from PMC5706891.
No constants are given. Whether binding was seen depends on the method and setting. In cells and extracts the contact can be indirect. Some entries that bind do so weakly or less than the wild type. For part of these data: Where a sequence is shown, tags or fusion partners need not be part of it.

By UniProt entry, the sequences of proteins in these tests, tags left out.
UniProt P09874: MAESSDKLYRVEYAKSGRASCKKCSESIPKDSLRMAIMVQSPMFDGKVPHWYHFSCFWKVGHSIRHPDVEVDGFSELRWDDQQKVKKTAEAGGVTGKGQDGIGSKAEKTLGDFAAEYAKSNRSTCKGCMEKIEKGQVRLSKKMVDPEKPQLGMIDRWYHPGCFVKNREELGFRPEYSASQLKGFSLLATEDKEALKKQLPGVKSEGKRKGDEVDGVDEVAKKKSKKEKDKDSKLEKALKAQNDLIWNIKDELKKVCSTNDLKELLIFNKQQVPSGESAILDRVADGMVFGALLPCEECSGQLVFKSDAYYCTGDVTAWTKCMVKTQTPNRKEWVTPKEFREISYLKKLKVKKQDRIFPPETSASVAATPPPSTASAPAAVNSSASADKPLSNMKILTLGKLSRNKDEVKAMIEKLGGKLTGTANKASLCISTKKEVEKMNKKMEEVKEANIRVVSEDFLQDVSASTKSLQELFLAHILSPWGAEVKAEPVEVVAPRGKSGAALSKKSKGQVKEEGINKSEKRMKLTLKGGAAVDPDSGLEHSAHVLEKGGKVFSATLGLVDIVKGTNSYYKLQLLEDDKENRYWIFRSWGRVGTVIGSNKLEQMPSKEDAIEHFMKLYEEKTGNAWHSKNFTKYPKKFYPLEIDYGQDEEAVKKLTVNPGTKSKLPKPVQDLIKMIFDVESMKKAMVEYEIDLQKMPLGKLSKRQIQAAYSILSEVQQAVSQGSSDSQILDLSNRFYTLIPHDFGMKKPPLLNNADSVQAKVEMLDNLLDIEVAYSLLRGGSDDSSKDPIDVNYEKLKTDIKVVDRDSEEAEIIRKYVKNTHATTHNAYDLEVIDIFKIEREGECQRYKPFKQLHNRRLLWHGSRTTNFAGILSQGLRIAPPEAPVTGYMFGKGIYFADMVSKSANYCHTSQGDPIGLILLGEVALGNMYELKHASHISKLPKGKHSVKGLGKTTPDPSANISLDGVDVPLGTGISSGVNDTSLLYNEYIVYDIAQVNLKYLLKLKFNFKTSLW

Experiments:
[1] = biological target: T1, Flag-RNF144A (ring finger protein 144A) (human) (UniProt P50876); test: co-IP; HEK293T cells transfected with Flag-RNF144A and HA-PARP1 alone or in combination, 48 h, IP with anti-Flag antibody, immunoblotting; NP-40 lysis buffer, overnight at 4 °C
T1 sequence: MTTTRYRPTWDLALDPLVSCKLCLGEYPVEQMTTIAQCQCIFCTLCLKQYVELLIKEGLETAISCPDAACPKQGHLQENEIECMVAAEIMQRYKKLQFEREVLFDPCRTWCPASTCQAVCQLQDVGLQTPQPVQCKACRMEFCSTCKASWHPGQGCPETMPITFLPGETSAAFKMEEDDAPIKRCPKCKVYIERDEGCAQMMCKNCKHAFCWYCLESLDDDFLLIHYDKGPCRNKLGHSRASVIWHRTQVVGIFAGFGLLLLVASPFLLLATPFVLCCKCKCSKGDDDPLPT

[2] = biological target: T2, GST-RNF144A C-terminal region (residues 253-292) containing the transmembrane domain (human) (UniProt P50876); test: pull-down; GST or GST-RNF144A proteins (full length or deletion constructs) on glutathione-sepharose beads incubated with total cellular lysates of HBL100 and BT474 cells at 4 °C for 4 h, immunoblotting with anti-PARP1 antibody; only the target purified
T2 sequence: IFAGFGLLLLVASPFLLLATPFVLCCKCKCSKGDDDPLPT

[3] = biological target: Poly(ADP-ribose) polymerase 1 (PARP1), endogenous (human (endogenous in HEK293T, HBL100, BT474)) (UniProt P09874); test: co-IP; endogenous proteins in HBL100 and BT474 cells treated with 10 μM MG-132 for 4 h, IP with anti-PARP1 antibody, immunoblotting; NP-40 lysis buffer, overnight at 4 °C

HA-PARP1 (from UniProt P09874 1-1014)
binding [1]: binds

Poly(ADP-ribose) polymerase 1 (PARP1), endogenous (from UniProt P09874 1-1014)
binding [2]: binds

B1: Ring finger protein 144A (RNF144A), endogenous (enzyme, UniProt P50876 1-292)
chain: MTTTRYRPTWDLALDPLVSCKLCLGEYPVEQMTTIAQCQCIFCTLCLKQYVELLIKEGLETAISCPDAACPKQGHLQENEIECMVAAEIMQRYKKLQFEREVLFDPCRTWCPASTCQAVCQLQDVGLQTPQPVQCKACRMEFCSTCKASWHPGQGCPETMPITFLPGETSAAFKMEEDDAPIKRCPKCKVYIERDEGCAQMMCKNCKHAFCWYCLESLDDDFLLIHYDKGPCRNKLGHSRASVIWHRTQVVGIFAGFGLLLLVASPFLLLATPFVLCCKCKCSKGDDDPLPT
binding [3]: binds
